Results are given in words; binding and its absence hold for the method and conditions named. In cells and extracts the contact can be indirect. These calls come from enrichment with a bait or labelling near it, and not all partners need be listed. Where a sequence is shown, tags or fusion partners need not be part of it.
Biological target: T1, GFP-BAG5 (UniProt Q9UL15)
T1 sequence: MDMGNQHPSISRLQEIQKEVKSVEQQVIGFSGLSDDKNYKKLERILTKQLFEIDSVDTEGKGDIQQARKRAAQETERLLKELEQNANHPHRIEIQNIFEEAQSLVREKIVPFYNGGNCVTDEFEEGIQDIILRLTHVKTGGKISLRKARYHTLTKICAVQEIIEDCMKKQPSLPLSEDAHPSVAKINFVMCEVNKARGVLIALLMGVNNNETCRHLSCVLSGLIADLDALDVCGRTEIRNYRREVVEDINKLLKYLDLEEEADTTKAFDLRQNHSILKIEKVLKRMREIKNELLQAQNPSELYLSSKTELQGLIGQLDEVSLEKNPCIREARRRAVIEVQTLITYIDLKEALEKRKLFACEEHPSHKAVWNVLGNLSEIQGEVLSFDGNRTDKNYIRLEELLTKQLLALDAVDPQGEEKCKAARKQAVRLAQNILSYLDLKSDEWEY
Assay: affinity purification with mass spectrometry; GFP-trap beads with 1 mg lysate (RIPA buffer) of H4 lines stably expressing GFP, GFP-BAG5 or GFP-BAG5_(DARA), 2 h at 4°C, three RIPA washes, LTQ-Orbitrap MS

Amino acid sequences for entries named in this document (tags omitted).
UniProt P0DMV8: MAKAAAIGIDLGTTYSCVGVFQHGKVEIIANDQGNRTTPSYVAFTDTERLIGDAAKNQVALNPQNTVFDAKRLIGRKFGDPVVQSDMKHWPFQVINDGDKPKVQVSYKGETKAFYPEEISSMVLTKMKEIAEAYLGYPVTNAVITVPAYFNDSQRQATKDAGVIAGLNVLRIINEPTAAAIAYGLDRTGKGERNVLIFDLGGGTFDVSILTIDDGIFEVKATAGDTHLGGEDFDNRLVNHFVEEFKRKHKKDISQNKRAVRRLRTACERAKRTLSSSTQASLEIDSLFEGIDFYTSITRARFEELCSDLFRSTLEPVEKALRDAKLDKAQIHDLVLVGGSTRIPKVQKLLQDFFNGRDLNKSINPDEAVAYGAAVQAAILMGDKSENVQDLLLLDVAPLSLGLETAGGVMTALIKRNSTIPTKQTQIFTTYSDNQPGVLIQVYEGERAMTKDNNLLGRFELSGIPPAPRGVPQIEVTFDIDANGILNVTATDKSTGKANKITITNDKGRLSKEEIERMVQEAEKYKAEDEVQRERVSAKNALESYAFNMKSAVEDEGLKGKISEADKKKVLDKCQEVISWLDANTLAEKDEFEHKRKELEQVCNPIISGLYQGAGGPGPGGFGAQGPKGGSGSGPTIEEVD

binding	Substance
binds	HSPA1A (from UniProt P0DMV8 1-641)
binds	p62 (from UniProt Q13501 1-440)

Source: paper PMC7417480
